The assay deals with T1, Flag-tagged U2AF1a (endogenous, U2af1a-only Tsc1-/- MEF cell line) (mouse (endogenous in Tsc1-/- MEFs)) (UniProt Q9D883).
T1 sequence: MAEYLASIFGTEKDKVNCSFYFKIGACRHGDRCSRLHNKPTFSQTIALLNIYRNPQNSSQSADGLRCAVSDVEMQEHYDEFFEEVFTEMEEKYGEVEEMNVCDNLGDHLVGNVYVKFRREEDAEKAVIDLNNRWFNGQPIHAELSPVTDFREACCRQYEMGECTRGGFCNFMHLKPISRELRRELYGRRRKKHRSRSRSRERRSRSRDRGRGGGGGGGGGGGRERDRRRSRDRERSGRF
Description: affinity purification with mass spectrometry; cells cross-linked with 0.2% formaldehyde for 10 min; lysis buffer with 300 mM NaCl, 0.5% Empigen, 0.5% NP-40; anti-Flag M2 magnetic beads, in the presence of RNase A, eluted with 3x Flag peptide; label-free quantification against a control Flag-IP.

By UniProt entry, the sequences of proteins in these tests, tags left out.
UniProt P26369: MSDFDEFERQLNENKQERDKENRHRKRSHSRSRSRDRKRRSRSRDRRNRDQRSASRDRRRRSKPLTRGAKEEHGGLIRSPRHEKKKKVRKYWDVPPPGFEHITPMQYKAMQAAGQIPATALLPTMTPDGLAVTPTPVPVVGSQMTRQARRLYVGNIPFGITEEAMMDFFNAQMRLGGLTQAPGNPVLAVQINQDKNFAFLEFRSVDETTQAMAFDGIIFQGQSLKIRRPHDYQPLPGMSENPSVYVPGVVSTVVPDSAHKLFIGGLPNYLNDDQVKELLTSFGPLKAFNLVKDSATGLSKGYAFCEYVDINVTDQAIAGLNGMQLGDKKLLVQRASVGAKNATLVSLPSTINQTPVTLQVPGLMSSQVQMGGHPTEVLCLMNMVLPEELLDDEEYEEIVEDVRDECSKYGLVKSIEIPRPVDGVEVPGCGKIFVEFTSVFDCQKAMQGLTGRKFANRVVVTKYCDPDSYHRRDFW

Results are given in words; binding and its absence hold for the method and conditions named. In cells and extracts the contact can be indirect. A yes stands for co-enrichment or nearness to the bait. Other partners may have been found. Where a sequence is shown, tags or fusion partners need not be part of it.

Turning to U2AF2 (from UniProt P26369 1-475), the binding result is given as “binds”.

For the origin of these results see article PMC6821156.
